Screen size: about 390,000 compounds; about 760 (0.19%) were called active. The shares of active, inactive and inconclusive entries below differ from those in the screen. Calls follow the shape of the dose curve; as a rule, active = well fitted inhibition curve with a large enough effect; inconclusive = small, poorly fitted or top-dose-only effect; inactive = flat fitted curve, though single readings scatter. A potency beside an inconclusive call is a rough fit, not a confirmed value.
Experiment: qHTS for Inhibitors of Vif-A3F Interactions: qHTS; also: nearly all actives have a fitted effect of over 65% in size
Details: HeLa A3F-eYFP + Vif (tagged APOBEC3F with the HIV-1 protein that degrades it), YFP fluorescence increase; series mostly up to 46.1 µM
In short: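 HeLa cells stably expressing Vif plus C-terminally eYFP-tagged A3F were seeded, incubated overnight at 37 deg C, dosed with compound, incubated overnight again at 37 deg C. Yellow fluorescence (Ex 488/Em 500-530) reported blocked Vif-mediated A3F-eYFP degradation.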
With `Cn1nccc1NC(=O)Nc1ccc(OC(F)(F)F)cc1` the Potency was inconclusive: 3.98 µM [inhibitor, partial curve, poor fit]. With `O=C(NCc1ccc2c(c1)OCO2)c1nc(Cn2cc([N+](=O)[O-])cn2)no1` the Potency was inconclusive: 15.8 µM [inhibitor, partial curve, poor fit]. With `c1ccc(CNCCC(Cc2ccccc2)c2ccco2)cc1` (stereo not given) the Potency was inconclusive: 35.5 µM [inhibitor, single point]. In the case of `Cc1ccc(S(=O)(=O)N2CCCCC2CCNC(=O)C(=O)NC2CC2)cc1` (stereo not given), the Potency is reported as inconclusive: 3.98 µM [inhibitor, single point]. For `COc1ccccc1NC(=O)C1=C(C)Nc2nc(SCc3ccccc3)nn2C1c1ccccn1` (stereo not given), the Potency was “inactive”. With `CCc1ccccc1N(CC(=O)NCC1CCCO1)C(=O)CCC(=O)Nc1cc(C)on1` (stereo not given) the Potency was inconclusive: 6.31 µM [inhibitor, single point]. For `Cc1ccc(S(=O)(=O)NC(=O)N(C)C2CCCCC2)cc1`, the Potency was inconclusive: 6.31 µM [inhibitor, single point]. In the case of `O=S(=O)(c1cccc(-c2nnc(SCc3nc4ccccc4s3)o2)c1)N1CCOCC1`, the Potency is reported as inconclusive: 35.5 µM [inhibitor, single point]. With `CN(C(=O)COC(=O)C1CCN(S(=O)(=O)c2c(Cl)cccc2Cl)CC1)c1ccccc1` the Potency was inconclusive: 5.62 µM [inhibitor, single point]. With `Cc1cnc(NC2=NCCC2)s1` the Potency was inconclusive: 35.5 µM [inhibitor, single point]. With `CC(=O)N(Cc1ccc(F)cc1)C1=C(NCc2ccccc2)C(=O)c2ccccc2C1=O` the Potency was “inactive”. In the case of `O=C1c2cccc3c([N+](=O)[O-])ccc(c23)C(=O)N1Cc1cccnc1`, the Potency is reported as inconclusive: 2.82 µM [inhibitor, partial curve, poor fit]. For `O=C(O)/C(=C/c1ccc(Cl)c([N+](=O)[O-])c1)c1ccc(S(=O)(=O)N2CCCCC2)s1`, the Potency was “inactive”. With `Cc1cc(NC(=O)CSc2nc3c(c(-c4cccnc4)c2C#N)CCC3)no1` the Potency was “inactive”. In the case of `CCCCOc1ccc(C(=O)OC2CC(C)N(C)CC2C)cc1` (stereo not given), the Potency is reported as “inactive”. In the case of `CSC(=S)N/N=C/c1ccc(N(C)C)cc1`, the Potency is reported as inconclusive: 6.31 µM [inhibitor, single point]. With `O=c1oc(-c2ccc(O)c(O)c2)cc2cccc(O)c12` the Potency was “inactive”. For `CCN1CCN(S(=O)(=O)c2ccc(S(=O)(=O)N(CC)Cc3ccccc3)cc2)CC1`, the Potency was “inactive”. For `O=C(Cn1c(=O)c2cccn2c2ccc(F)cc21)NCc1cccc(Cl)c1`, the Potency was inconclusive: 35.5 µM [inhibitor, single point]. With `Brc1ccc(OCCN2CCOCC2)cc1` the Potency was “inactive”. In the case of `CC(=O)N1CCN(C(=O)COc2ccccc2C(=O)Nc2ccccc2)CC1`, the Potency is reported as inconclusive: 35.5 µM [inhibitor, single point]. For `CCOc1ccc2nc(NC(=O)c3nc(SC(C)C)ncc3Cl)sc2c1`, the Potency was active: 5.01 µM. In the case of `COc1cccc(-c2nnc(NC(=O)CCS(=O)(=O)c3ccc(C)cc3)o2)c1`, the Potency is reported as inconclusive: 5.62 µM [inhibitor, single point]. For `Nc1ccc(C(=O)NN2C(=O)[C@H](Cl)C2c2ccc(Cl)cc2)cc1` (stereo not given in full), the Potency was “inactive”. With `O=S(=O)(Nc1nc2ccccc2nc1Cl)c1ccccc1C(F)(F)F` the Potency was “inactive”. In the case of `CCCCn1c(CN2CCN(C)CC2)nc2ccccc21`, the Potency is reported as “inactive”. With `CC1=NN(C(N)=S)C(=O)C1N=Nc1ccccc1Cl` (stereo not given) the Potency was “inactive”. With `Cn1c(O)c(N=Nc2ccc(F)cc2)c2ccccc21` the Potency was inconclusive: 35.5 µM [inhibitor, single point]. For `COc1ccc(-c2noc(-c3cccs3)n2)cc1OC`, the Potency was “inactive”. In the case of `Cc1c(N=C2N=C(NC(=O)c3cccs3)c3ccccc32)c(=O)n(-c2ccccc2)n1C`, the Potency is reported as inconclusive: 11.2 µM [inhibitor, partial curve, poor fit]. In the case of `O=C(c1ccc(S(=O)(=O)N2CCC(c3nc4ccccc4s3)CC2)cc1)N1CCOCC1`, the Potency is reported as inconclusive: 3.98 µM [inhibitor, partial curve, poor fit]. With `Nn1c(SCC(=O)Nc2c(F)cc(F)cc2Br)nnc1C1CCCCC1` the Potency was inconclusive: 0.794 µM [inhibitor, full curve, poor fit]. With `CN(Cc1ccccc1)C(=O)CSc1c2c(nc3ccc(Cl)cc13)CCCC2` the Potency was inconclusive: 3.16 µM [inhibitor, single point]. With `OCCN(CCO)c1nc(N2CCCCC2)c2nc(N(CCO)CCO)nc(N3CCCCC3)c2n1` the Potency was inconclusive: 22.4 µM [inhibitor, single point]. For `c1ccc(CCCCN2C(Nc3ccccc3)=NC[C@@H]2Cc2ccccc2)cc1`, the Potency was “inactive”. In the case of `COc1cc(/C=C/C(=O)c2ccc(C)cc2)ccc1OCC#N`, the Potency is reported as “inactive”. With `Cn1cc(S(=O)(=O)N2CCc3ccccc32)cc1C(=O)NC(C)(C)C` the Potency was “inactive”. With `Cc1cc(S(=O)(=O)N2CCOCC2)ccc1F` the Potency was “inactive”. With `CC1=C(C(=O)OC(C)C)C(c2ccc(Cl)cc2)n2c(s/c(=C\c3ccc(OCC(=O)O)cc3)c2=O)=N1` (stereo not given) the Potency was inconclusive: 35.5 µM [inhibitor, single point]. With `Cc1ccc(S(=O)(=O)c2cc3ccccc3oc2=Nc2ccc3c(c2)OCO3)cc1` the Potency was active: 22.4 µM. In the case of `COc1ccc(NC(=O)C2CCCN(S(=O)(=O)c3cccc4nonc34)C2)cc1Cl` (stereo not given), the Potency is reported as inconclusive: 17.8 µM [inhibitor, partial curve, poor fit]. For `O=C(NCc1cccc(Cl)c1)NCc1noc2ccccc12`, the Potency was “inactive”. For `N#Cc1ccc(NC(=S)NCCN2CCOCC2)cc1`, the Potency was inconclusive: 3.55 µM [inhibitor, single point]. For `CC(C)=NN/C(N)=N/C(=S)Nc1ccc(C)cc1`, the Potency was inconclusive: 25.1 µM [inhibitor, single point]. For `CCCCOC(=O)c1ccc(Nc2ncnc3c2cnn3-c2cccc(C)c2)cc1`, the Potency was “inactive”. With `N#C/C(=C\c1ccc(-c2ccc(F)cc2)o1)C(=O)Nc1nc(-c2cccs2)cs1` the Potency was inconclusive: 35.5 µM [inhibitor, single point]. With `Cc1cc(-c2nnc(SCC(=O)Nc3ccccn3)o2)no1` the Potency was inconclusive: 8.91 µM [inhibitor, partial curve, poor fit]. With `CCn1c(=O)cc(OCC(=O)N2CCCC2)c2ccccc21` the Potency was “inactive”. In the case of `O=C(/C=C/c1cc(Br)ccc1O)c1ccco1`, the Potency is reported as “inactive”. In the case of `CCCn1c(C2CCCN2c2nc(-c3ccc(OC)cc3)cs2)nc2ccccc21` (stereo not given), the Potency is reported as inconclusive: 15.8 µM [inhibitor, partial curve, poor fit]. For `C/C(=N\NC(=O)CCC(=O)NCc1ccccc1)c1ccco1`, the Potency was inconclusive: 35.5 µM [inhibitor, single point]. In the case of `COCCNC(=O)CCC1CCN(Cc2ccc(-c3ccccc3)cc2)CC1`, the Potency is reported as “inactive”. For `CCC1CCCCN1C(=S)NC(=O)c1cc(Br)ccc1Cl` (stereo not given), the Potency was inconclusive: 8.91 µM [inhibitor, partial curve, poor fit]. With `C[C@@H]1CCCCO[C@@H](CN(C)CC2CCCCC2)[C@@H](C)CN([C@H](C)CO)C(=O)c2cc(NS(=O)(=O)c3ccc(Cl)cc3)ccc2O1` the Potency was “inactive”. With `CCOc1cc(S(=O)(=O)NCCc2c(C)[nH]c3ccc(C)cc23)ccc1Br` the Potency was inconclusive: 31.6 µM [inhibitor, single point]. In the case of `Cc1cc(C)cc(-n2c(SCC(=O)NC3CCCCC3)nc3c([nH]c4ccccc43)c2=O)c1`, the Potency is reported as inconclusive: 14.1 µM [inhibitor, single point]. With `N#C/C(=C\c1ccc([N+](=O)[O-])o1)c1nc2ccccc2[nH]1` the Potency was inconclusive: 3.16 µM [inhibitor, full curve, poor fit]. For `Cc1cc(C)n2nc(C(=O)N/N=C/c3c4ccccc4cc4ccccc34)nc2n1`, the Potency was inconclusive: 35.5 µM [inhibitor, single point]. With `O=c1c(Cl)c(N/N=C/c2ccc(Br)cc2)cnn1-c1ccccc1` the Potency was inconclusive: 22.4 µM [inhibitor, single point]. In the case of `COCc1cc(N2CCOCC2)nc(-c2ccccc2)n1`, the Potency is reported as inconclusive: 3.16 µM [inhibitor, single point]. For `Clc1ccc(/C=N/NC2=Nc3cccc4cccc2c34)cc1`, the Potency was active: 12.6 µM. In the case of `Cc1cccc(C)c1NC(=O)CCCSc1nnc(-c2ccco2)o1`, the Potency is reported as inconclusive: 22.4 µM [inhibitor, single point]. With `CCc1nc(N2CCCC(C)C2)c2oc3ccccc3c2n1` (stereo not given) the Potency was “inactive”. In the case of `COc1ccc(-c2nn(-c3ccccc3)cc2/C=C/C(=O)OCC(=O)Nc2ccccc2C#N)cc1`, the Potency is reported as inconclusive: 2.24 µM [inhibitor, full curve, poor fit]. In the case of `O=C1CC(NS(=O)(=O)c2cccs2)CN1c1ccccc1` (stereo not given), the Potency is reported as inconclusive: 6.31 µM [inhibitor, single point]. For `O=C(CN1C(=O)NC2(CCCCC2)C1=O)Nc1cc(C(F)(F)F)ccc1N1CCCCC1`, the Potency was inconclusive: 20 µM [inhibitor, partial curve, poor fit]. In the case of `O=C(Nc1ccccc1)c1ccc(CN2CCc3ccccc3C2)cc1`, the Potency is reported as inconclusive: 5.62 µM [inhibitor, single point]. With `COC(=O)c1ccccc1NC(=O)c1cc2ccccc2o1` the Potency was inconclusive: 22.4 µM [inhibitor, partial curve, poor fit]. With `Cc1ccc(Cl)cc1NC(=O)C1CCCN1S(=O)(=O)c1ccc(-c2ccc(=O)[nH]n2)s1` (stereo not given) the Potency was “inactive”. With `CCOC(=O)c1ccc(NC(=O)CCc2nc3cccnc3n2Cc2cccs2)cc1` the Potency was inconclusive: 35.5 µM [inhibitor, single point].
Potency is read from the fitted curve at half-maximal effect.
